Data: paper PMC10984026
These are yes or no findings as the source states them, for the method shown. Binding seen in cells or lysates may run through a third protein. Here binding means that the protein was enriched with, or labelled near, the bait; the list need not be complete.

By UniProt entry, the sequences of proteins in these tests, tags left out. Residues count along the entry.
UniProt Q6YHK3, residues 22-1420: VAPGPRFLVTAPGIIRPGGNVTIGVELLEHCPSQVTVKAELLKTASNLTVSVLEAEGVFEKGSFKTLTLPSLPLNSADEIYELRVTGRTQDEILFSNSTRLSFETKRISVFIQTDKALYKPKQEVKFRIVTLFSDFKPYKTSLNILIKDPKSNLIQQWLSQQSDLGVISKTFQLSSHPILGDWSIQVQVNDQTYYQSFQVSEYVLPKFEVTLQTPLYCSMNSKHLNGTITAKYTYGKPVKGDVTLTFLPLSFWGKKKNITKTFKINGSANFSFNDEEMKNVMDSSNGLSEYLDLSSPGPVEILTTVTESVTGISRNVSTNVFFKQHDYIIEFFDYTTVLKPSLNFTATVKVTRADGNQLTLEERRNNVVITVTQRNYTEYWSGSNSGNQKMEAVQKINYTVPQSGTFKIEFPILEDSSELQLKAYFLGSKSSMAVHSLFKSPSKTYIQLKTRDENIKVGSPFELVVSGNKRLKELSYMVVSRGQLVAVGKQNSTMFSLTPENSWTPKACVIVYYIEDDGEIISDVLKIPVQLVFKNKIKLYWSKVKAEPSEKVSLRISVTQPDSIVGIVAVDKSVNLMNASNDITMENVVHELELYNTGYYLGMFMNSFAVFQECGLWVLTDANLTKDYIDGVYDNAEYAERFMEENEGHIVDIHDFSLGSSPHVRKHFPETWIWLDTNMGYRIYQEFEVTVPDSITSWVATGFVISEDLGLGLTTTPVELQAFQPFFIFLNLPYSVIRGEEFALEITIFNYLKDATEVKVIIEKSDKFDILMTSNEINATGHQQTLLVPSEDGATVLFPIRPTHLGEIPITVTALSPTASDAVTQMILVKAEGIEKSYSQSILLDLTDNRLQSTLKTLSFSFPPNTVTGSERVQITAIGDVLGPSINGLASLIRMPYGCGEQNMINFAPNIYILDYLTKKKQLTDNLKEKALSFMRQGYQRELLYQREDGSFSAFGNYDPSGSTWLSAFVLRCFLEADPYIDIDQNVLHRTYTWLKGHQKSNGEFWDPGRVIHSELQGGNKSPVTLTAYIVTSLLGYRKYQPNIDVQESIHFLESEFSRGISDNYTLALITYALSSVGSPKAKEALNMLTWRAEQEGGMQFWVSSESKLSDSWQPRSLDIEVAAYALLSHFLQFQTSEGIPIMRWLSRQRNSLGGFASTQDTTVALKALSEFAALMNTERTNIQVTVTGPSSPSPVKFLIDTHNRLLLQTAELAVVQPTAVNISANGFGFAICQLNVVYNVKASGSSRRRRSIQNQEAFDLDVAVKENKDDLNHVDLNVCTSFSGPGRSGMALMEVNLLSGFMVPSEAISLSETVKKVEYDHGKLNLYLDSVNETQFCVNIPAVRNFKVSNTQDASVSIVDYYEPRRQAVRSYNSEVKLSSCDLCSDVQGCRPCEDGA
UniProt Q02487, residues 136-901: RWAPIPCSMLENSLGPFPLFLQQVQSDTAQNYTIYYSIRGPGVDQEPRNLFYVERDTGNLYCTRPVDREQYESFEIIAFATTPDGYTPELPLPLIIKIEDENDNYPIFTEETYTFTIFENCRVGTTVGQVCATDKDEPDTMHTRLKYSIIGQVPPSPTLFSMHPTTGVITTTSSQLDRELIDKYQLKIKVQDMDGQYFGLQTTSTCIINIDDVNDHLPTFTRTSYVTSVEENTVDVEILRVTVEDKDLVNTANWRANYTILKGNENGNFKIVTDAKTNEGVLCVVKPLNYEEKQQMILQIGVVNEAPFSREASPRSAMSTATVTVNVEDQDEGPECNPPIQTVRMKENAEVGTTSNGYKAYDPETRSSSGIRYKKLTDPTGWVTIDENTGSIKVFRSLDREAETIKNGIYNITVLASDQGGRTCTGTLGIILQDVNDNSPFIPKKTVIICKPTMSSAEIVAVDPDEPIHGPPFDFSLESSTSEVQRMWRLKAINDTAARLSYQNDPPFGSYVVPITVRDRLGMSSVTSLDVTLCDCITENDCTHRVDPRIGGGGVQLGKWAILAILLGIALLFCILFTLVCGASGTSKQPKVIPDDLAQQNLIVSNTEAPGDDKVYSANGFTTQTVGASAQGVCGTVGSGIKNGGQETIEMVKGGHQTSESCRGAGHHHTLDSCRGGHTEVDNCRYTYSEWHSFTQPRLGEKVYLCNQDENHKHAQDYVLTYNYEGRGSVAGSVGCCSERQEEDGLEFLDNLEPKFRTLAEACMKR
UniProt Q02413, residues 50-1049: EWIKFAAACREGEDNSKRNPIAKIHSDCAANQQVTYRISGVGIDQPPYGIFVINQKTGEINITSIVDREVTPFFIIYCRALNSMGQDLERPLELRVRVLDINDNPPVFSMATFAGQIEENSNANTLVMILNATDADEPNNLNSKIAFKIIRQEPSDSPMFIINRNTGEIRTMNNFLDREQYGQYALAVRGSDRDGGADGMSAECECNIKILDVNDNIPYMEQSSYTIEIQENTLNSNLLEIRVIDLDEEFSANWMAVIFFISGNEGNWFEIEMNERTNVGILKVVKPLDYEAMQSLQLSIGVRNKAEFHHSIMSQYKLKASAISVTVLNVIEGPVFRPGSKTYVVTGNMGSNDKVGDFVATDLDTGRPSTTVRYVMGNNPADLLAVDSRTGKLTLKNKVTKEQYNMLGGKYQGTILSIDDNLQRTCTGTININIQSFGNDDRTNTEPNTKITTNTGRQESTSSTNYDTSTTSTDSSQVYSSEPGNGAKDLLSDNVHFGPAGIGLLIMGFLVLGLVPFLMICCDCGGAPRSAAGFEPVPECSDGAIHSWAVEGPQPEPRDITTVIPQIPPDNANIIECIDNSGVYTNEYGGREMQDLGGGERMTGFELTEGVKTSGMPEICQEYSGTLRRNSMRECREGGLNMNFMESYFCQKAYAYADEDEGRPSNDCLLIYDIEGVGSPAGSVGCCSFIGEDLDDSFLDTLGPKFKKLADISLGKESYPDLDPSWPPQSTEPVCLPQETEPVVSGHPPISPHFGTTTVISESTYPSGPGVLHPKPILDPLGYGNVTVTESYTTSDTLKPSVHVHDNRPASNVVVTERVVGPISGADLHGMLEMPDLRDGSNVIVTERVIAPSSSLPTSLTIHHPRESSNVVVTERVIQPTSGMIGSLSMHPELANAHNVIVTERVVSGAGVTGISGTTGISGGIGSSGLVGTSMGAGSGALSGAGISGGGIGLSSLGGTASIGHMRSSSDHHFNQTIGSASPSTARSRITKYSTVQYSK
UniProt Q14126, residues 50-1118: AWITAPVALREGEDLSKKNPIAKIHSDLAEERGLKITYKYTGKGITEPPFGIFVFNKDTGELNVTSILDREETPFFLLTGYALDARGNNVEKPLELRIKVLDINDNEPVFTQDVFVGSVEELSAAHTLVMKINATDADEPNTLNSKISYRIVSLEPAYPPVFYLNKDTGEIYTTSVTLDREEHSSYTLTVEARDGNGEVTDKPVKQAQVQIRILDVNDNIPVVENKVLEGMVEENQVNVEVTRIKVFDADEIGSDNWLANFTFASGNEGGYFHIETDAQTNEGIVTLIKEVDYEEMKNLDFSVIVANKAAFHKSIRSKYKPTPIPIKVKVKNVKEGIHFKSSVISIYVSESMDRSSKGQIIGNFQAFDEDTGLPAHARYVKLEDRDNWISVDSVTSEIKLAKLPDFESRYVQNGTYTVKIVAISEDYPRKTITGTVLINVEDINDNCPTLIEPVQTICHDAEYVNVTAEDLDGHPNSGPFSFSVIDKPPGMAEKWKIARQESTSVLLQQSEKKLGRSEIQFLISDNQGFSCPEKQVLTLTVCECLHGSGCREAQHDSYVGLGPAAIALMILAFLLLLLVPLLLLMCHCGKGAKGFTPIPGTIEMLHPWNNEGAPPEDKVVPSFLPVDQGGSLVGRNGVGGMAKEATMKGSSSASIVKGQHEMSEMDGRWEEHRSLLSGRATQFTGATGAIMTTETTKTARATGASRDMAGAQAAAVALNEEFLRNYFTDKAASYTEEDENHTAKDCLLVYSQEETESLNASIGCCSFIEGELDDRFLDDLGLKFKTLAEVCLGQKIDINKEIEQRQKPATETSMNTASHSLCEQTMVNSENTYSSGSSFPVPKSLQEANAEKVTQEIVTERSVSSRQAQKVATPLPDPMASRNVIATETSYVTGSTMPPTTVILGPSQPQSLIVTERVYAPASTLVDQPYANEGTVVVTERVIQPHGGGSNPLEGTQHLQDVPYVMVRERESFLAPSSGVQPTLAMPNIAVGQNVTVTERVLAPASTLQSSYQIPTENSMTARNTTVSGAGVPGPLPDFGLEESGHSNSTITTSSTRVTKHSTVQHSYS

B1: desmocollin-1 (DSC1) (protein, UniProt Q08554 135-894)
chain: RWAPIPASLMENSLGPFPQHVQQIQSDAAQNYTIFYSISGPGVDKEPFNLFYIEKDTGDIFCTRSIDREKYEQFALYGYATTADGYAPEYPLPLIIKIEDDNDNAPYFEHRVTIFTVPENCRSGTSVGKVTATDLDEPDTLHTRLKYKILQQIPDHPKHFSIHPDTGVITTTTPFLDREKCDTYQLIMEVRDMGGQPFGLFNTGTITISLEDENDNPPSFTETSYVTEVEENRIDVEILRMKVQDQDLPNTPHSKAVYKILQGNENGNFIISTDPNTNEGVLCVVKPLNYEVNRQVILQVGVINEAQFSKAASSQTPTMCTTTVTVKIIDSDEGPECHPPVKVIQSQDGFPAGQELLGYKALDPEISSGEGLRYQKLGDEDNWFEINQHTGDLRTLKVLDRESKFVKNNQYNISVVAVDAVGRSCTGTLVVHLDDYNDHAPQIDKEVTICQNNEDFAVLKPVDPDGPENGPPFQFFLDNSASKNWNIEEKDGKTAILRQRQNLDYNYYSVPIQIKDRHGLVATHMLTVRVCDCSTPSECRMKDKSTRDVRPNVILGRWAILAMVLGSVLLLCILFTCFCVTAKRTVKKCFPEDIAQQNLIVSNTEGPGEEVTEANIRLPMQTSNICDTSMSVGTVGGQGIKTQQSFEMVKGGYTLDSNKGGGHQTLESVKGVGQGDTGRYAYTDWQSFTQPRLGEKVYLCGQDEEHKHCEDYVCSYNYEGKGSLAGSVGCCSDRQEEEGLEFLDHLEPKFRTLAKTCIKK

What follows are molecules tested against N-terminally HA-tagged CD109 (cluster of differentiation 109) (UniProt Q6YHK3) (assay: affinity purification with mass spectrometry; N-terminally HA-tagged CD109 in HEK293T; membrane fraction isolated by snap freezing, lysed, precipitated with anti-HA-tag antibody; co-precipitated proteins identified by LC-MS protein fingerprinting).

binding, binds:
desmocollin-2 (DSC2) (from UniProt Q02487 136-901)
desmoglein-1 (DSG1) (from UniProt Q02413 50-1049)
desmoglein-2 (DSG2), endogenous (from UniProt Q14126 50-1118)
protocadherin FAT1 (from UniProt Q14517 22-4588)
B1
